Results: PubChem BioAssay AID445 (National Center for Advancing Translational Sciences (NCATS), 2006)
This is one part of the list. These are further read-outs of the screen, such as a control signal, another cell line or another target. No call is given for them. Most of these compounds were active or inconclusive in the main read-out, so they are no random draw. Words in brackets tell the shape of the fitted curve; partial curves, single points and poor fits give uncertain potencies.

Test: IkB Signaling
Details: ABC-DLBCL IkBa-CBG/CBR dual luciferase ratio (green luciferase fused to IkBa over red control in OCI-Ly3 lymphoma cells), 4 h; measured here: control luc red channel unless noted
Outline: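 In this assay, an IκBα–CBG68 fusion accumulates when IKK-driven degradation is blocked; native CBR normalizes for cell number. OCI-Ly3 cells were treated 4 h with compound and doxycycline, then green and red light read after Chroma-Glo addition.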

SMILES | AC50
CCOc1ccc(OCC)c(NC(=O)c2cc(-c3cccs3)nc3ccccc23)c1 | 0.316 µM [falling, partial curve]
O=C1CCSc2ccc(S(=O)(=O)Nc3cccc(C(F)(F)F)c3)cc2N1 | 12.6 µM [falling, partial curve]
O=c1c(N2CCN(c3cccc(Cl)c3)CC2)csc2ccc(Cl)cc12 | 12.6 µM [falling, partial curve, poor fit]
CSc1ccc(C2C(C#N)=C(N)Oc3c2ccc(=O)c2c(C)oc(C)c32)cc1 (stereo unspecified) | 7.94 µM [falling, partial curve]
CN(C)/C=C1/Nc2ccccc2C1=O | 0.01 µM [falling, full curve, poor fit]
CCc1ccc2occ(CC(=O)Nc3ccc(C)c(C)c3)c2c1 | 25.1 µM [falling, partial curve]
CCOC(=O)N1CCN(Cc2nc(N)nc(Nc3ccc(Oc4ccccc4)cc3)n2)CC1 | 10 µM [falling, partial curve]
Cc1sc2ncn(CC(=O)N3CCN(c4ccccc4)CC3)c(=O)c2c1S(=O)(=O)N1CCC(C)CC1 | 12.6 µM [falling, partial curve]
O=C(CN1C(=O)CSc2ccc(S(=O)(=O)N3CCCC3)cc21)NCc1ccc(F)cc1Cl | 39.8 µM [falling, single point]
Cc1cccc(NC(=O)N2CC=C(c3c[nH]c4ccccc34)CC2)c1C | 15.8 µM [falling, partial curve]
CCN(CC)C(=O)C1CCCN(c2ncnc3c2c(-c2ccccc2)cn3-c2cccc(C)c2)C1 (stereo unspecified) | 25.1 µM [falling, partial curve]
c1cncc(-c2nc(N3CCCCCC3)c3ccccc3n2)c1 | 39.8 µM [falling, single point]
COCCOC(=O)C1=C(C)N=c2s/c(=C\c3cccs3)c(=O)n2C1c1cccs1 (stereo unspecified) | 0.631 µM [falling, full curve]
Cc1cc(N2CCC(C)CC2)nc2ccc(NC(=O)CCC(=O)N3CCN(c4ccccc4F)CC3)cc12 | 12.6 µM [falling, partial curve]
COc1ccc(S(=O)(=O)N(CCc2ccccc2)CC(=O)Nc2cc(C)cc(C)c2)cc1OC | 10 µM [falling, partial curve]
COc1ccccc1N1CCN(S(=O)(=O)CCNC(=O)C(c2ccccc2)c2ccccc2)CC1 | 15.8 µM [falling, partial curve, poor fit]
Cc1ccc(C)c2[nH]c(=O)c(CN(CCN3CCCC3)C(=O)Nc3cccc(Cl)c3)cc12 | 25.1 µM [falling, partial curve]
Cc1ccc2c(c1)c(C)c(C)n2CC(O)Cn1nnc2ccccc21 (stereo unspecified) | 39.8 µM [falling, single point]
CCN(CC)Cc1c[nH]c2c(C(=O)OC)cccc12 | 6.31 µM [falling, partial curve]
CCOC(=O)c1[nH]c(C)c(CCC(=O)Nc2cc(Cl)c(OC)cc2OC)c1C | 15.8 µM [falling, single point]
CCC(C)NC(=O)c1cn(CC)c2ccc(S(=O)(=O)N3CCc4ccccc4C3)cc2c1=O (stereo unspecified) | 15.8 µM [falling, partial curve]

SMILES | AC50
O=C(NCc1ccccc1Cl)c1ccc2c(c1)N(Cc1ccccc1)CCS2 | 10 µM [falling, partial curve]
Cc1ccccc1C(=O)Nc1ccccc1-c1nc(-c2ccccc2)no1 | 0.002 µM [rising, full curve]
CCOc1ccc2nc(N3CCCC(C(=O)NCCc4ccc(C)cc4)C3)sc2c1 (stereo unspecified) | 0.0316 µM [falling, full curve, poor fit]
CC(C(=O)Nc1ccccc1)n1nnc2sc3c(c2c1=O)CCCC3 (stereo unspecified) | 20 µM [falling, partial curve]
Cc1nc2c(oc3ccccc32)c(=O)o1 | 3.98 µM [falling, partial curve]
COc1ccc(NC(=O)CN2CCN(CC(=O)Nc3ccccc3Cl)CC2)cc1Cl | 15.8 µM [falling, partial curve]
Cc1cccc(NC(=O)Nc2nnc(N3CCCC3)s2)c1 | 12.6 µM [falling, partial curve]
CCCCn1c(CNC(=O)C23CC4CC(CC(C4)C2)C3)nnc1SCC(=O)Nc1ccc(F)cc1 | 20 µM [falling, partial curve]
O=C(CSc1nnc(-c2c[nH]c3ccccc23)n1-c1ccc(F)cc1)NCc1ccco1 | 15.8 µM [falling, partial curve]
Cc1ccc(NC(=O)C2CCCN2S(=O)(=O)c2ccc3nc(-c4ccccc4)[nH]c3c2)cc1C (stereo unspecified) | 25.1 µM [falling, partial curve]
CCOC(=O)N1CCN(C(=O)CSCC(=O)Nc2nc(-c3ccc(Cl)s3)cs2)CC1 | 3.16 µM [falling, full curve]
CC(C)C(=O)Nc1cccc(C(=O)Nc2nnc(C(F)(F)F)s2)c1 | 15.8 µM [falling, partial curve]
CCOc1ccccc1NC(=O)CCc1c(C)nc2cc(-c3ccccc3)nn2c1C | 10 µM [falling, partial curve]
COc1cccc(NC(=O)Cn2c(=O)n(CCc3cccc(C)c3)c(=O)c3ccccc32)c1 | 15.8 µM [falling, partial curve]
Cc1cccc(NC(=O)c2c(NC(=O)c3ccco3)sc3c2CCC(C)C3)c1 (stereo unspecified) | 3.98 µM [falling, full curve]
O=C(NCc1ccccc1Cl)c1ccc(-n2cnc3cccnc32)cc1 | 25.1 µM [falling, single point]
CCN(CC)C(=O)CSc1ncnc2c(-c3cccs3)nsc12 | 25.1 µM [falling, partial curve]
Cn1c(/C(C#N)=C/c2ccc(C(F)(F)F)cc2)nc2ccccc21 | 39.8 µM [falling, single point]
Cc1ccc(CNC(=O)CSCc2nc(-c3cccc(C)c3)oc2C)cc1 | 25.1 µM [falling, partial curve]
CCCN(CCC)C(=O)Cn1c(=O)n(-c2ccc(Cl)c(Cl)c2)c(=O)c2c(C)c(C(=O)N(C)C)sc21 | 3.98 µM [rising, partial curve]
